Experimental data: PubChem BioAssay AID1259308 (NCATS, 2017)

Purpose: 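Genes whose loss raises luciferase production in HEK293 cells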 (primary screen)
Cell system: human HEK293 embryonic kidney cells stably expressing firefly luciferase (HEK-CMV-Luc2-Hygro)
Reagent: single siRNA against human genes, 0.8 pmol siRNA per well
Timing: 72 h
Measured: 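Reporter luminescence and viable-cell signal on separate replicate plates, given as percent of non-targeting control and median/MAD z-scores, plus per-cell luciferase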
Reading the numbers: total luciferase, z-score and total luciferase, % of control: higher = more reporter protein produced; luciferase per cell, z-score: higher = more reporter output per viable cell; viable cells, % of control: higher = more viable cells
Active means: 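An siRNA counts as active if its total luciferase robust z-score exceeds 3; genes with two or more such siRNAs out of three were retested with fresh siRNAs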
Meaning of the calls: active = raised luciferase; inactive = no rise
This is a random part of about 59,000 deposited reagents. In the full data, about 1,510 (2.6%) were called active. 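Calls use total luciferase alone and ignore viability, so some active siRNAs may act by altering cell number.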 Unmarked entries are inactive. The numbers tell different reagents against one gene apart.

target gene,reagent no.,"total luciferase, z-score","total luciferase, % of control","luciferase per cell, z-score","viable cells, % of control"
OMD,1,-1.13,59.4,-1.64,102
OMD,2,-2.64,29.4,-2.31,60.4
OMD,3,0.738,96.6,0.502,94.5
YBX2,1,1.09,103,0.338,106
YBX2,2,0.725,96.3,0.909,84.7
YBX2,3,1.21,106,0.717,97.9
CNOT4,1,-0.519,71.6,-0.623,94.2
CNOT4,2,2.34,128,1.96,85.6
CNOT4,3,-0.708,67.8,-0.801,93.5
CINP,1,-1.12,59.7,-1.35,95.2
CINP,2,1.21,106,0.467,105
CINP,3,-0.183,78.3,0.12,84.7
NEUROG2,1,-0.197,78,-0.501,99.4
NEUROG2,2,-0.0597,80.7,-0.66,107
NEUROG2,3,-1.02,61.6,-0.626,81.1

Laid out differently: entries from further up
target gene | reagent no. | total luciferase, z-score | total luciferase, % of control | luciferase per cell, z-score | viable cells, % of control
CNOT4 | 3 | -0.708 | 67.8 | -0.801 | 93.5
CINP | 1 | -1.12 | 59.7 | -1.35 | 95.2

Continued.
target gene,reagent no.,"total luciferase, z-score","total luciferase, % of control","luciferase per cell, z-score","viable cells, % of control"
ZDHHC9,1,0.0603,83.1,-0.307,101
ZDHHC9,2,-0.391,74.1,-0.613,97.3
ZDHHC9,3,-0.442,73.1,0.111,79.3
ALS2CL,1,-0.276,76.4,0.0702,83.8
ALS2CL,2,-0.356,74.8,-0.384,92.5
ALS2CL,3,0.064,83.2,-0.464,105
SIX3,1,-1.36,54.9,-1.81,98.8
SIX3,2,-1.03,61.4,-0.968,88.6
SIX3,3,1.62,114,1.59,83.7
